No constants are given. Whether binding was seen depends on the method and setting. For part of these data: In cells and extracts the contact can be indirect. Some binding calls cover weakened binding; strength is not graded here.
Legend:
[1] = target: SIGMAR1/Sigma-1 receptor-EYFP (mouse) (UniProt O55242); assay: co-IP; cells transiently transfected (20-24 h) with SIGMAR1-EYFP, treated with pridopidine 0, 0.5, 1 or 5 µM; procedure as the immunoprecipitation method; HRP-conjugated secondary antibody; bands normalised to SIGMAR1-YFP; pridopidine lowered the HSPA5 association (~50% dissociation at 0.5 and 1 µM, ~30% at 5 µM) and raised the POM121 association at 0.5 and 1 µM
[2] = target: POM121 (nuclear pore membrane protein 121), endogenous (mouse (endogenous in NSC34)) (UniProt Q8K3Z9); assay: co-IP; immunoprecipitation with the POM121 antibody from NSC34 lysate, all proteins endogenous; IP lysis buffer 50 mM NaCl, 0.5% Nonidet P-40, 10 mM Tris-HCl pH 8.0
[3] = target: HA-SIGMAR1/Sigma-1 receptor (mouse) (UniProt O55242); assay: co-IP; HA antibody used to pull down HA-SIGMAR1 from lysates of transfected NSC34 cells; IP lysis buffer 50 mM NaCl, 0.5% Nonidet P-40, 10 mM Tris-HCl pH 8.0; protein-A/G agarose, 4°C; control IgG; also done after overnight transfection with GFP-(G4C2)31 RNA repeats (decreased association)
[4] = target: SIGMAR1/Sigma-1 receptor-GFP (mouse) (UniProt O55242); assay: co-IP; NSC34 cells co-expressing POM121-MYC/DDK and SIGMAR1-GFP; immunoprecipitating antibody not named in the legend; IP lysis buffer 50 mM NaCl, 0.5% Nonidet P-40, 10 mM Tris-HCl pH 8.0; with and without POM121-MYC/DDK overexpression
[5] = target: T1, SIGMAR1/Sigma-1 receptor, endogenous (mouse (endogenous in NSC34)), O55242; assay: native gel or EMSA; NSC34 cells pretreated with pridopidine for 1 h; lysate (25 µg) on NativePAGE Novex 4-16% Bis-Tris gel, immunoblot with SIGMAR1 antibody B5; pridopidine reduced oligomerization at 1 µM but not at 5 µM; conditions: remark: other sources report otherwise
T1 chain: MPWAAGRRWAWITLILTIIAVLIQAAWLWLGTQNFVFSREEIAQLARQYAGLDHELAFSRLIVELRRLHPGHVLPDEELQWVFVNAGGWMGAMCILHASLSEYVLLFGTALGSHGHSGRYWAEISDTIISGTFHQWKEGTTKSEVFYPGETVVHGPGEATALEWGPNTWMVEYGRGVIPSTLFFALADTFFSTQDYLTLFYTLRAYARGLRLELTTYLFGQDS

Sequences of proteins named here, by UniProt entry; tags and fusion partners are left off. Residues count along the entry.
UniProt Q8K3Z9: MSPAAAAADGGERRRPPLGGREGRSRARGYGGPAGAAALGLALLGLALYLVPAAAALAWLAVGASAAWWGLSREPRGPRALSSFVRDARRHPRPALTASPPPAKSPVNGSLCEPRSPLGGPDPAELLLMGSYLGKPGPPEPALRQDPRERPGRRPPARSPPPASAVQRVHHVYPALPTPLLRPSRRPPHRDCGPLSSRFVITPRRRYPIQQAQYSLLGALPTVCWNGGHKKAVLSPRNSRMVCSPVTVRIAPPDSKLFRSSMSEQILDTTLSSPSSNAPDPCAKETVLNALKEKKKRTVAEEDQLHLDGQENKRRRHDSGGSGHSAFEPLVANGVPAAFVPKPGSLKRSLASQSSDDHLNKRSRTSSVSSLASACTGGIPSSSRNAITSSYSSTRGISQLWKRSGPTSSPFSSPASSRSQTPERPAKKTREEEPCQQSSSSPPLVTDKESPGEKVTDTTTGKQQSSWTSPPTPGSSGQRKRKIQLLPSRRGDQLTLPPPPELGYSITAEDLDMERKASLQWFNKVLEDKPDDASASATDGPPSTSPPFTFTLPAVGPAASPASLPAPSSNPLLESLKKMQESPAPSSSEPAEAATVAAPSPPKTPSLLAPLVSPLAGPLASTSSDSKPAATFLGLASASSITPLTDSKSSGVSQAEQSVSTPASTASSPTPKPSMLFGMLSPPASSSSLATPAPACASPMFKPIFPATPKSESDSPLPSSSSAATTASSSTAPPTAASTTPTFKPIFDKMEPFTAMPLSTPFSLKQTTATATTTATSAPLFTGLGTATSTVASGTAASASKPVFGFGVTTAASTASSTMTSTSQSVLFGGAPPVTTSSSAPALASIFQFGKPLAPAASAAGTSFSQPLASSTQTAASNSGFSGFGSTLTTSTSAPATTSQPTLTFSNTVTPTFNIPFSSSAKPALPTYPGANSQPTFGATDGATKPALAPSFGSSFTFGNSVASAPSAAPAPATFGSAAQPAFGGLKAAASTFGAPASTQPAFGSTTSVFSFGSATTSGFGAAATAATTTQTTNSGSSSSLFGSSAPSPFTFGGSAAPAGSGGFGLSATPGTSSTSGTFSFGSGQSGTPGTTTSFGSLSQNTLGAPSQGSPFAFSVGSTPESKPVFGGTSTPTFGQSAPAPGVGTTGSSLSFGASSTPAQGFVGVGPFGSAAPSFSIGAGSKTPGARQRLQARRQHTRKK
UniProt P20029, residues 20-655: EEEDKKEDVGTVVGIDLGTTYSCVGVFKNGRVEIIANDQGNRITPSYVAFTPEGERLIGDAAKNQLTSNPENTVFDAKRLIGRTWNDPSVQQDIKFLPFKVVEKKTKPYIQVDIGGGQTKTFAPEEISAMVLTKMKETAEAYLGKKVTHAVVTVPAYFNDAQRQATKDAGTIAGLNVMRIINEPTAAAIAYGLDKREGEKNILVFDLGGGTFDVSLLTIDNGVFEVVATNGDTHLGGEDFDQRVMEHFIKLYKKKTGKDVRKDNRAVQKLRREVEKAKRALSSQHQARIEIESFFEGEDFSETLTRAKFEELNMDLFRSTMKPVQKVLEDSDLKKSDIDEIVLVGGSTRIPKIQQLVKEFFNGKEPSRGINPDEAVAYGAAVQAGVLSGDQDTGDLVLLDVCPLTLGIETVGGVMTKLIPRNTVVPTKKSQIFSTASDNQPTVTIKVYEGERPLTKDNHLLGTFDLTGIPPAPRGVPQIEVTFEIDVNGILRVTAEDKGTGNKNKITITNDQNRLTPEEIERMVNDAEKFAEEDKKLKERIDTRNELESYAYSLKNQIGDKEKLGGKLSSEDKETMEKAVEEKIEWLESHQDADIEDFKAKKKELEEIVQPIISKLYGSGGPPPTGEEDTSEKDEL
UniProt P70168: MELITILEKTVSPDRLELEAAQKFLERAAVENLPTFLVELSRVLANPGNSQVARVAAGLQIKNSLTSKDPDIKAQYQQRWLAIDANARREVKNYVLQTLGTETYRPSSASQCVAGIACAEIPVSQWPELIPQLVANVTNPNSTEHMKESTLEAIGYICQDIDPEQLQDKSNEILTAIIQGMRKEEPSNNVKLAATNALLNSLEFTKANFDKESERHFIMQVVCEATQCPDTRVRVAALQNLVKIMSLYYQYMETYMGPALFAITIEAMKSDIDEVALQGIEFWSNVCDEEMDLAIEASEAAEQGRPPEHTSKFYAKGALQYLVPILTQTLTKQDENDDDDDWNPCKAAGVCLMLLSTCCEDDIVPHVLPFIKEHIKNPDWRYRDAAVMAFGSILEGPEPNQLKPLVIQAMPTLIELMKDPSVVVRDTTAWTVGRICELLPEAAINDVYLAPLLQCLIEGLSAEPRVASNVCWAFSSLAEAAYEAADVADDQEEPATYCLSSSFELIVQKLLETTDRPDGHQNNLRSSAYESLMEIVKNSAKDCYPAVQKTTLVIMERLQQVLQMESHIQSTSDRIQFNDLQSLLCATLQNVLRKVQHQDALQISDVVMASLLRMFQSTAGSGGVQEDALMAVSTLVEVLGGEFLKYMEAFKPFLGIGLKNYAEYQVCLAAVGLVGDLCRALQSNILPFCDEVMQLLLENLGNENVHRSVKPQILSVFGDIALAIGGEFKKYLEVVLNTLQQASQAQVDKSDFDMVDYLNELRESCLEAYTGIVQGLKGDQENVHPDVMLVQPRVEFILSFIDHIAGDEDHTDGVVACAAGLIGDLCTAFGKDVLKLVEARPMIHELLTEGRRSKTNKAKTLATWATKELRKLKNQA

Row | Molecule | binding [1] | binding [2] | binding [3] | binding [4] | further results
1 | HSPA5/BiP (heat shock protein 5), endogenous (from UniProt P20029 20-655) | binds |  |  |  | 
2 | KPNB1/importinβ1, endogenous (from UniProt P70168 1-876) |  | binds | binds | binds | 
3 | POM121 (nuclear pore membrane protein 121), endogenous (from UniProt Q8K3Z9 1-1200) | binds |  | binds |  | 
4 | POM121-MYC/DDK (from UniProt Q8K3Z9 1-1200) |  |  |  | binds | 
5 | SIGMAR1/Sigma-1 receptor, endogenous (from UniProt O55242-1 1-223) |  | binds |  |  | 
6 | SIGMAR1/Sigma-1 receptor, endogenous, O55242-1 1-223 (protein) MPWAAGRRWAWITLILTIIAVLIQAAWLWLGTQNFVFSREEIAQLARQYAGLDHELAFSRLIVELRRLHPGHVLPDEELQWVFVNAGGWMGAMCILHASLSEYVLLFGTALGSHGHSGRYWAEISDTIISGTFHQWKEGTTKSEVFYPGETVVHGPGEATALEWGPNTWMVEYGRGVIPSTLFFALADTFFSTQDYLTLFYTLRAYARGLRLELTTYLFGQDS |  |  |  |  | binding [5]: binds

— article PMC9809944
